Results on one molecule are retold here after patent US20040265918A1.

Amino acid sequences for entries named in this document (tags omitted). Residues count along the entry.
UniProt Q9QYF3, residues 2-1828: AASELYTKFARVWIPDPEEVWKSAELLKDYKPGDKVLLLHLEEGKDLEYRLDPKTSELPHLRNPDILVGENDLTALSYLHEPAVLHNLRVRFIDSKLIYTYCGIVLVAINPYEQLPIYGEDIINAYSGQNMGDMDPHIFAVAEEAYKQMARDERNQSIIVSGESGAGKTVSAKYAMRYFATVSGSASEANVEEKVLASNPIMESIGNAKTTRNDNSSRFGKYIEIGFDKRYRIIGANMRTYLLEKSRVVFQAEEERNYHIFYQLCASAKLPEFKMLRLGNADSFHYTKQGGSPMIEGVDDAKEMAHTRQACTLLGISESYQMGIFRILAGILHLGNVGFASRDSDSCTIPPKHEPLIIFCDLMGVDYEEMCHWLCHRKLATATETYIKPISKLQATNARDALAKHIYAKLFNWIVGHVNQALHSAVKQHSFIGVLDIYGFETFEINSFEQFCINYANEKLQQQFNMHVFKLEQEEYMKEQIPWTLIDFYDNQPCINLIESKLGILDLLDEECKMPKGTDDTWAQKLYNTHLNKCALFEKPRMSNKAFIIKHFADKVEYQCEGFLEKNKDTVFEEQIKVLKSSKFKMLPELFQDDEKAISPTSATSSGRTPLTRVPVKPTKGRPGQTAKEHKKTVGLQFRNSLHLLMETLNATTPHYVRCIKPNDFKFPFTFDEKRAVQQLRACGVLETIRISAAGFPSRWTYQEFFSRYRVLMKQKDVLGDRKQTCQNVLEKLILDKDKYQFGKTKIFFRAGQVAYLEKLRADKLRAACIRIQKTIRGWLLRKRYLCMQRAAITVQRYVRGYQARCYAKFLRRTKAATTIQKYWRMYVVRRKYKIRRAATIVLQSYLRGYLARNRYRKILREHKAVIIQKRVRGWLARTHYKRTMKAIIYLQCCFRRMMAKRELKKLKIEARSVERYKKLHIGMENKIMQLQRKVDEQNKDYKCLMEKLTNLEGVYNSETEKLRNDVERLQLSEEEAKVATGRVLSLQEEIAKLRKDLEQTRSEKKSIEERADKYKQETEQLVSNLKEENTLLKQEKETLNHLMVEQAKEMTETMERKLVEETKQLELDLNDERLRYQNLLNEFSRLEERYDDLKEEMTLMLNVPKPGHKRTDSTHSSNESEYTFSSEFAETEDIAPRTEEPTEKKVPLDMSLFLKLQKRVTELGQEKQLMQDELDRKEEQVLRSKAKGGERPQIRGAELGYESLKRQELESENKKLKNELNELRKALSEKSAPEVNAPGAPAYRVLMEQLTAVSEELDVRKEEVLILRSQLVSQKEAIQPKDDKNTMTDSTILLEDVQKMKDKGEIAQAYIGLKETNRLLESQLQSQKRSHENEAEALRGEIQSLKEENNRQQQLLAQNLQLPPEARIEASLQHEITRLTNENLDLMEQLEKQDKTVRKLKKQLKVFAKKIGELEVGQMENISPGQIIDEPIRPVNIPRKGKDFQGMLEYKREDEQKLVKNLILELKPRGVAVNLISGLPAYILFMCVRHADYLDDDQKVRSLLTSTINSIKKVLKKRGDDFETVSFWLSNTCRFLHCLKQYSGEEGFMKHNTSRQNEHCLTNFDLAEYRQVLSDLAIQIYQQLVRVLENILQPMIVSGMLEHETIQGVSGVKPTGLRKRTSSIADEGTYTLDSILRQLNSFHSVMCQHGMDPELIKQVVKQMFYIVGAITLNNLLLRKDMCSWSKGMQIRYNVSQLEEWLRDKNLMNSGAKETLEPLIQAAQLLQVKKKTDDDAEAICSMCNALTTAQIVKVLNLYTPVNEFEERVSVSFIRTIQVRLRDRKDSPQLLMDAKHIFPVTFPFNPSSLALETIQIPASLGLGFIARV

No constants are given. Whether binding was seen depends on the method and setting. Some results given as binding are weak or reduced against the parent protein; the word gives no strength.

In the assay the target is myosin V (native, F-actin bound, in rat astrocyte lysates) (rat) (UniProt Q9QYF3). Briefly: recap of the experiments of the earlier example.

B1: ?TRα2 (truncated thyroid hormone receptor α2) (receptor, rat, UniProt P63059 256-492, looked up)
chain: MEIMSLRAAVRYDPESDTLTLSGEMAVKREQLKNGGLGVVSDAIFELGKSLSAFNLDDTEVALLQAVLLMSTDRSGLLCVDKIEKSQEAYLLAFEHYVNHRKHNIPHFWPKLLMKEREVQSSILYKGAAAEGRPGGSLGVHPEGQQLLGMHVVQGPQVRQLEQQFGEAGSLRGPVLQHQSPKSPQQRLLELLHRSGILHSRAVCGEDDSSEASSLSSSSSDEDTEVFEDLAGKAASP
Take B1: the binding entry is reported as “binds”.
